PubChem BioAssay AID1224828 | NIAID – 2016
The whole screen tested about 17,000 reagents; this is an unselected part. 762 of them (4.5%) count as active. 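Active calls include both raised and lowered p65 entry, mostly lowered; wells with fewer than 50 cells lack a z-score.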 Raw values are not corrected between plates. No sequences are given here.

- Purpose: 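Find genes required for NF-kappaB p65 moving into the nucleus after LPS in mouse macrophages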 (primary screen)
- System: mouse RAW264.7 G9 macrophage reporter cells (GFP-p65, Tnf promoter-mCherry)
- Reagents: siRNA pool against mouse genes, 100 nM
- Duration: 2 days siRNA transfection, then 40 min LPS before fixation
- Conditions: LPS (Salmonella minnesota R595) at 10 ng/ml
- Measurement: 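Imaged p65 nuclear translocation ratio, normalised to the plate median, converted to robust z-scores and averaged across two replicates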
- Direction: p65 translocation robust z-score: higher = more nuclear NF-kappaB p65 after LPS than the plate median; nuclear/cytoplasmic p65 ratio: higher = more nuclear NF-kappaB p65
- Active means: 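Called active when z exceeds 3.3 or falls under -1.56 (median of Tlr4 controls), giving activity score of at least 50; no calls for control wells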
- Meaning of the calls: active = hit (p65 shift raised or lowered); inactive = no clear change

With knock-down of Sbp (spermine binding protein), the record shows p65 translocation robust z-score 0.66; nuclear/cytoplasmic p65 ratio, rep 1 = 1.46; nuclear/cytoplasmic p65 ratio, rep 2 = 1.33; low cell count flag enough cells to score; inactive. After knock-down of Pdgfrb (platelet derived growth factor receptor, beta polypeptide), the record shows p65 translocation robust z-score -0.35; nuclear/cytoplasmic p65 ratio, rep 1 = 1.55; nuclear/cytoplasmic p65 ratio, rep 2 = 1.4; low cell count flag enough cells to score; inactive. Rsad2 (radical S-adenosyl methionine domain containing 2) gave p65 translocation robust z-score -0.93; nuclear/cytoplasmic p65 ratio, rep 1 = 1.44; nuclear/cytoplasmic p65 ratio, rep 2 = 1.51; low cell count flag enough cells to score; inactive. Silencing of Tyrobp (TYRO protein tyrosine kinase binding protein) came out at: nuclear/cytoplasmic p65 ratio, rep 1 = 1.38; nuclear/cytoplasmic p65 ratio, rep 2 = 1.24; low cell count flag fewer than 50 cells per well; well left out of scoring; inactive.

Part of the list above in another layout:
Gene	p65 translocation robust z-score	nuclear/cytoplasmic p65 ratio, rep 1	nuclear/cytoplasmic p65 ratio, rep 2	low cell count flag	Call
Sbp (spermine binding protein)	0.66	1.46	1.33	enough cells to score	inactive
Pdgfrb (platelet derived growth factor receptor, beta polypeptide)	-0.35	1.55	1.4	enough cells to score	inactive

The list goes on.
Against Klk6 (kallikrein related-peptidase 6) the deposit lists p65 translocation robust z-score -0.63; nuclear/cytoplasmic p65 ratio, rep 1 = 1.3; nuclear/cytoplasmic p65 ratio, rep 2 = 1.21; low cell count flag enough cells to score; inactive. Ddt (D-dopachrome tautomerase) scored p65 translocation robust z-score -1.01; nuclear/cytoplasmic p65 ratio, rep 1 = 1.4; nuclear/cytoplasmic p65 ratio, rep 2 = 1.55; low cell count flag enough cells to score; inactive. Or4a39 (olfactory receptor family 4subfamily A member 39) scored p65 translocation robust z-score 0.33; nuclear/cytoplasmic p65 ratio, rep 1 = 1.73; nuclear/cytoplasmic p65 ratio, rep 2 = 1.41; low cell count flag enough cells to score; inactive. After knock-down of Ccl11 (C-C motif chemokine ligand 11) the results were p65 translocation robust z-score 1.55; nuclear/cytoplasmic p65 ratio, rep 1 = 1.64; nuclear/cytoplasmic p65 ratio, rep 2 = 1.61; low cell count flag enough cells to score; inactive. For Nrg4 (neuregulin 4), the values are p65 translocation robust z-score -1.51; nuclear/cytoplasmic p65 ratio, rep 1 = 1.48; nuclear/cytoplasmic p65 ratio, rep 2 = 1.57; low cell count flag enough cells to score; inactive. Against Sfi1 (Sfi1 homolog, spindle assembly associated (yeast)), the entry reads nuclear/cytoplasmic p65 ratio, rep 1 = 1.3; nuclear/cytoplasmic p65 ratio, rep 2 = 1.03; low cell count flag fewer than 50 cells per well; well left out of scoring; inactive.

Knock-down of Prpf8 (pre-mRNA processing factor 8) gave: p65 translocation robust z-score -0.05; nuclear/cytoplasmic p65 ratio, rep 1 = 1.38; nuclear/cytoplasmic p65 ratio, rep 2 = 1.5; low cell count flag enough cells to score; inactive. Or4c12b (olfactory receptor family 4 subfamily C member 12B) scored p65 translocation robust z-score -0.46; nuclear/cytoplasmic p65 ratio, rep 1 = 1.57; nuclear/cytoplasmic p65 ratio, rep 2 = 1.33; low cell count flag enough cells to score; inactive. Pou1f1 (POU domain, class 1, transcription factor 1) scored p65 translocation robust z-score -0.35; nuclear/cytoplasmic p65 ratio, rep 1 = 1.5; nuclear/cytoplasmic p65 ratio, rep 2 = 1.32; low cell count flag enough cells to score; inactive. Fam25a (family with sequence similarity 25, member A) showed nuclear/cytoplasmic p65 ratio, rep 1 = 1.4; nuclear/cytoplasmic p65 ratio, rep 2 = 1.41; low cell count flag fewer than 50 cells per well; well left out of scoring; inactive.
